We go through two molecules from patent publication US10488418B2, “Fluorescence assay for intestinal permeability” (THE REGENTS OF THE UNIVERSITY OF CALIFORNIA, priority 2014, dated 2019).

Where “and” joins values, the source holds several entries; their conditions need not be identical. Equal values may be shown once.

Data set [1] in a line: Viologen based fluorescence assay for sugars in urine with 4,4′oBBV and HPTS. Conditions: with 4,4′oBBV, analyte concentration in original human urine sample; for LLOD: signal 3 SD above mean noise; for LLOQ: signal 10 SD above mean noise. An excerpt: A Marquardt 4-parameter curve fit was used. […] The g in urine/g ingested×100 yielded % ingested. Lactulose measurements were confirmed by enzyme assay.
Statistics: The lower limit of detection (LLOD) was defined as the analyte concentration in the urine sample at which fluorescence intensity in the assay was 3 standard deviations above the mean baseline fluorescence. Similarly, the lower limit of quantification (LLOQ) was defined as 10 standard deviations above the mean baseline fluorescence. Coefficient of variation percent (CV %) was determined by averaging sets of samples each measured in 4 wells. Results are given as mean±SEM.

A short description of data set [2]: Viologen based fluorescence assay for sugars in urine with 4,4′oMBV and HPTS. Conditions: with 4,4′oMBV, analyte concentration in original human urine sample.

Take `OC[C@H]1O[C@@H](O[C@@H]2[C@@H](CO)OC(O)(CO)[C@H]2O)[C@H](O)[C@@H](O)[C@H]1O` (mixture of isomers) [Lactulose, lactulose]: the figures for the LLOD in data set [1] and in data set [2] (signal 3 SD above mean noise) were 90 µM and 108 µM, respectively. Also, the LLOQ was 364 µM in data set [1] and 704 µM in data set [2] (signal 10 SD above mean noise).
With `OC[C@@H](O)[C@@H](O)[C@H](O)[C@H](O)CO` [Mannitol, mannitol], in data set [1], the LLOD is 416 µM and 354 µM; the LLOQ is 860 µM and 1250 µM.
